Results reported in US5317103A, “Indole-substituted five-membered heteroaromatic compounds as 5-HT1 agonists” (Merck Sharp & Dohme Limited, priority 1992, dated 1994).
Some of these results come from one statement about several compounds together.

The chains behind the UniProt entries cited, without tags or fusion partners.
UniProt P49144, whole entry: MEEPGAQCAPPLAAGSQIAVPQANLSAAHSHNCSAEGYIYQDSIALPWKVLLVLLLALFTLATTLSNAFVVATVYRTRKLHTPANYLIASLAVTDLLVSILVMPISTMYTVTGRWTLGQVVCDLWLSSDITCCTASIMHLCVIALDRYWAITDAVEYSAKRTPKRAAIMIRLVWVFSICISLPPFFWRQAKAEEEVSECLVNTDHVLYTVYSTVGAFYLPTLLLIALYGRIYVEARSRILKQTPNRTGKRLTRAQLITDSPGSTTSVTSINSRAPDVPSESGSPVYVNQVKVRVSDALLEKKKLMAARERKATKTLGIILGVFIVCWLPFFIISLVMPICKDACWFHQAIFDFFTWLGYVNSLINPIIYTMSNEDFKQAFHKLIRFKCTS

Biological target: T1, 5-HT1 -like receptor (Oryctolagus cuniculus, UniProt P49144)
T1 construct: contraction of the saphenous vein of New Zealand White rabbits; from tissue; host or cells: saphenous vein of New Zealand White rabbits
Assay: agonist-mediated contraction of the saphenous vein of New Zealand White rabbits
Format: cell-based
Conditions: rabbit saphenous vein contraction; from plots of percentage 5-HT (1 μm) response against agonist concentration
Procedure: The activity of test compounds as agonists of the 5-HT1 -like receptor was measured in terms of their ability to mediate contraction of the saphenous vein of New Zealand White rabbits, using the procedure described in Arch. Pharm., 1990, 342, 111. Agonist potencies were calculated as -log10 EC50 (pEC50) values, from plots of percentage 5-HT (1 μm) response against the concentration of the agonist.

SMILES | agonist potency -log10 EC50 (pEC50)
COc1ccc(Cc2noc(-c3ccc4[nH]cc(CCN)c4c3)n2)cc1 [Example 19, 2-[5-[5-(3-(4-Methoxybenzyl)-1,2,4-oxadiazol)yl]-1H-indol-3-yl]ethylamine] | not less than 5.0
CC(=O)Nc1ccc(Cc2noc(-c3ccc4[nH]cc(CCN)c4c3)n2)cc1 [Example 20, 2-[5-[5-(3-(4-Acetylaminobenzyl)-1,2,4-oxadiazol)yl]-1H-indol-3-yl]ethylamine] | not less than 5.0
CS(=O)(=O)Nc1ccc(Cc2noc(-c3ccc4[nH]cc(CCN)c4c3)n2)cc1 [Example 21, 2-[5-[5-(3-(4-Methylsulphonylaminobenzyl)-1,2,4-oxadiazol)yl]-1H-indol-3-yl]ethylamine] | not less than 5.0
CNC(=O)c1ccc(Cc2noc(-c3ccc4[nH]cc(CCN)c4c3)n2)cc1 [Example 39] | not less than 5.0
CNC(=O)c1ccc(-c2noc(-c3ccc4[nH]cc(CCN)c4c3)n2)cc1 [Example 40, 2-[5-(5-(3-(4-N-Methylcarbamoylphenyl)-1,2,4-oxadiazol)yl)-1H-indol-3-yl]ethylamine] | not less than 5.0
CNS(=O)(=O)c1ccc(Cc2noc(-c3ccc4[nH]cc(CCN)c4c3)n2)cc1 [Example 41, 2-[5-(5-(3-(4-Methylaminosulphonylbenzyl)-1,2,4-oxadiazol)yl)-1H-indol-3-yl]ethylamine] | not less than 5.0
CN(C)S(=O)(=O)c1ccc(Cc2noc(-c3ccc4[nH]cc(CCN)c4c3)n2)cc1 [Example 42, 2-[5-(5-(3-(4-Dimethylaminosulphonylbenzyl)-1,2,4-oxadiazol)yl)-1H-indol-3-yl]ethylamine] | not less than 5.0
